The chains behind the UniProt entries cited, without tags or fusion partners. Residues count along the entry.
UniProt P10809, residues 27-573: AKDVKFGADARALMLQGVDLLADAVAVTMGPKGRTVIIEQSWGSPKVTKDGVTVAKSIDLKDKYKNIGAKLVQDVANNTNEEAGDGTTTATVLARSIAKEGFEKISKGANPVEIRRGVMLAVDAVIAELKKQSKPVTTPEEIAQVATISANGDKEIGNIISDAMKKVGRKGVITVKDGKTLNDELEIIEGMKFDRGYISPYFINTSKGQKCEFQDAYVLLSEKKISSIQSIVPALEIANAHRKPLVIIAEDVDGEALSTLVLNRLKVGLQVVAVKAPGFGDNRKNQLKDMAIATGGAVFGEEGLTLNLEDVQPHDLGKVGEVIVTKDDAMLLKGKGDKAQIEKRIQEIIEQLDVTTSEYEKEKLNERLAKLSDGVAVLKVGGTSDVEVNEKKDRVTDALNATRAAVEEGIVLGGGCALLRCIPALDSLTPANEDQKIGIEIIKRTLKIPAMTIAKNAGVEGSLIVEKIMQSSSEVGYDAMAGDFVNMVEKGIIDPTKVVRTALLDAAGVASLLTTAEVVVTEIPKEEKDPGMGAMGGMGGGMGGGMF

According to PMC3995007, “GTP binding controls complex formation by the human ROCO protein MASL1” (The Febs Journal, 2013):

Target: T1, FLAG-tagged wild type MASL1 (malignant fibrous histiocytoma amplified sequences with leucine-rich tandem repeats 1) (human) (UniProt Q9Y4C4)
T1 sequence: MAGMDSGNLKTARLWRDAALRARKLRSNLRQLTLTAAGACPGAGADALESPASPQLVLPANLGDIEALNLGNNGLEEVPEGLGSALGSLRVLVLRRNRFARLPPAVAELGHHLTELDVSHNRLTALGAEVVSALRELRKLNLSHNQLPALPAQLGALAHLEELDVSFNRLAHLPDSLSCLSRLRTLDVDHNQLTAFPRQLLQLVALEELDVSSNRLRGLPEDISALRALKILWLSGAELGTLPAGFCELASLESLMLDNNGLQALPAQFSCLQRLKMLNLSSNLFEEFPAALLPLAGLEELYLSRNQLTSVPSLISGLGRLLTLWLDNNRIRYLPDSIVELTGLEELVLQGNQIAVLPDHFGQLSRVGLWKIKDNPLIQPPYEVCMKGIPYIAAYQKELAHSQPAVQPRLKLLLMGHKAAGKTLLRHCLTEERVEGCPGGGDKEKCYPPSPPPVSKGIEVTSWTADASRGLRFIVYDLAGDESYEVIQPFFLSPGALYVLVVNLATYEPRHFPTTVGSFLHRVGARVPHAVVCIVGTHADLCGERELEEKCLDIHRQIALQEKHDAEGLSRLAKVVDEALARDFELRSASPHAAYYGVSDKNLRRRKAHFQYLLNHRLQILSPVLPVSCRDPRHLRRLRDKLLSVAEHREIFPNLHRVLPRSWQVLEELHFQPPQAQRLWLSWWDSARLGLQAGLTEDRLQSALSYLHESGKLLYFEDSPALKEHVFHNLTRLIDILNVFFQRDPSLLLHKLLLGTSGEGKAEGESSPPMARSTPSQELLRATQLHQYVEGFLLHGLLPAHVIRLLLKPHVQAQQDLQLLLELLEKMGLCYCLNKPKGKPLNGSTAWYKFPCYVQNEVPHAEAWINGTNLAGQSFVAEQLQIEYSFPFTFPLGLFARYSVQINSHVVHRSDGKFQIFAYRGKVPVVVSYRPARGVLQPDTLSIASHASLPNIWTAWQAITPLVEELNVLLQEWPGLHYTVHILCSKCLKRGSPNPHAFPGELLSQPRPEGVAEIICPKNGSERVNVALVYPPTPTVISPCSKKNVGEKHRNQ
Assay: affinity purification with mass spectrometry; lysates of MASL1 transfected HEK293T cells immunoprecipitated with FLAG-agarose beads, washed with 20 mM Tris, 150-500 mM NaCl, 0.02-1% Triton X-100; bands cut from SDS/PAGE, MALDI-QTOF MS

“Heat shock protein 60 (HSP60) (from UniProt P10809 27-573)” was tested, and the binding was “binds”.

These are yes or no findings as the source states them, for the method shown. In cells and extracts the contact can be indirect. These calls come from enrichment with a bait or labelling near it, and not all partners need be listed. Where a sequence is shown, tags or fusion partners need not be part of it.
